{
  "sequences": {"note": "Chains of the proteins cited; added tags and fusions are not shown.", "UniProt Q9SGH2": "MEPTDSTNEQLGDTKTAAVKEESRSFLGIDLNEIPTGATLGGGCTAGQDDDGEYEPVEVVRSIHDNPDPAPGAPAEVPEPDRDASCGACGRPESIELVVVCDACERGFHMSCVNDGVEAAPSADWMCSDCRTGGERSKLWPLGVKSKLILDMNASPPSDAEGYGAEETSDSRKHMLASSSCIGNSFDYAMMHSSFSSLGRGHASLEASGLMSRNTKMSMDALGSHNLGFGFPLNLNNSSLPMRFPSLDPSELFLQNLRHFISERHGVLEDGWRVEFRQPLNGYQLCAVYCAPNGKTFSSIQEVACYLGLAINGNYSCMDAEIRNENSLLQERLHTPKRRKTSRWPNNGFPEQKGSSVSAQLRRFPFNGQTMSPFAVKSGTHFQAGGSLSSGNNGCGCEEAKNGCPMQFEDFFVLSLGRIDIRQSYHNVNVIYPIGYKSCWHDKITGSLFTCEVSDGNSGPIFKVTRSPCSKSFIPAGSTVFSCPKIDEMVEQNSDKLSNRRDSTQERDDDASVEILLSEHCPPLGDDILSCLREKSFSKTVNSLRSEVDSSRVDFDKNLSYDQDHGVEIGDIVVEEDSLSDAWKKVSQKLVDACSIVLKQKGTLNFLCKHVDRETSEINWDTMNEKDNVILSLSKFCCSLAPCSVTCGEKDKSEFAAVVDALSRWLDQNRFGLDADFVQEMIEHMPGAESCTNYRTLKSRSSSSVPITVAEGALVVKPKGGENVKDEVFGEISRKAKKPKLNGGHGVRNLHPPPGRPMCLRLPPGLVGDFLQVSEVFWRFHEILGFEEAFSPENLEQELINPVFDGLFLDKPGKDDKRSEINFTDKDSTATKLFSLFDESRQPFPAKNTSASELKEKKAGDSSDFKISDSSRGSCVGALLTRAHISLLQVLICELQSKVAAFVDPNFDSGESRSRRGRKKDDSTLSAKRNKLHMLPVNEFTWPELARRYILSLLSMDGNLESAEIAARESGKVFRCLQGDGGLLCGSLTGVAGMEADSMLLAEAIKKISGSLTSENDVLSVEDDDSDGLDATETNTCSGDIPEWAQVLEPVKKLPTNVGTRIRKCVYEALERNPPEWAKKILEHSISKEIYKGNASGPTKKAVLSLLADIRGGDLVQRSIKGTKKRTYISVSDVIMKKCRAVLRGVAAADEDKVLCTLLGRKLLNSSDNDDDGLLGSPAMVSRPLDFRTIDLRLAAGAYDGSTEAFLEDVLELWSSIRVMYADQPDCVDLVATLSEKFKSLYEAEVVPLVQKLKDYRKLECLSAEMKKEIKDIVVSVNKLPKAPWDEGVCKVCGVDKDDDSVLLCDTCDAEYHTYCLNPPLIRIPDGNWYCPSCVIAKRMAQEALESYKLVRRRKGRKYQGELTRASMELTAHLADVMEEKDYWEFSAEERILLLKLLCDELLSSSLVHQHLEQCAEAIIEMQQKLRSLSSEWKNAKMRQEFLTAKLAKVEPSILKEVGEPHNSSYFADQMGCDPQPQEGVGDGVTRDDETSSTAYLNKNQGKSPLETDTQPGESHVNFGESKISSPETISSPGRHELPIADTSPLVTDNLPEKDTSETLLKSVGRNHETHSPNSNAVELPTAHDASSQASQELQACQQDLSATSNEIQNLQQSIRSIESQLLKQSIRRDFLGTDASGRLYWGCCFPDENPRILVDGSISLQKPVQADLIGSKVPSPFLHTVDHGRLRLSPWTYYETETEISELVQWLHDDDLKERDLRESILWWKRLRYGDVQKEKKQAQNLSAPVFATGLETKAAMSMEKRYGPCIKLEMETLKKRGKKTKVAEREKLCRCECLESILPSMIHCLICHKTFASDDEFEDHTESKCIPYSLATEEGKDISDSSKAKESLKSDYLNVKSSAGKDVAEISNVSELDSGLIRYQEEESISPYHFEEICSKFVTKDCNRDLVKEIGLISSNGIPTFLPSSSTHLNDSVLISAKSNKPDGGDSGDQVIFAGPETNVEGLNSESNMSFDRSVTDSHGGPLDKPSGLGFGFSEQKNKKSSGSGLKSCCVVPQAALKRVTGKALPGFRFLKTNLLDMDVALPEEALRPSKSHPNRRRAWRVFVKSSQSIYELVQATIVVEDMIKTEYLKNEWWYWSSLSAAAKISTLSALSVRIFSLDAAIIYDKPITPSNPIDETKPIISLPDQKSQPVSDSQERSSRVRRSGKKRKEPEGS"},
  "source": "paper PMC6659704",
  "target": "methyl-CpG-binding domain 9 (MBD9), endogenous (Arabidopsis (endogenous in flowers)) (UniProt Q9SGH2)",
  "experiment": "co-IP; anti-MBD9 polyclonal antibody on magnetic beads in lysate of ~2 g floral tissue; IP buffer (50 mM Tris pH 7.6, 150 mM NaCl, 5 mM MgCl2, 10% glycerol, 0.1% NP-40, 0.5 mM DTT), 2 h at 4 °C; blot with anti-Myc 9E10; empty beads as negative control",
  "note": "Results are given in words; binding and its absence hold for the method and conditions named. Binding seen in cells or lysates may run through a third protein. Some entries that bind do so weakly or less than the wild type. Tags and fused reporters may be left off the sequences shown.",
  "data": [
    {"binder": "ARP6-9xMYC (protein, UniProt Q8LGE3 1-421) MSNIVVLDNGGGLIKAGQGGERDPTTVIPNCLYKPLSSKKFIHPSPLTTLSDEIDLTSAAVRRPIDRGYLINSDLQREIWSHLFTSLLHIAPSSSSLLLTEAPLSIPSVQRTTDELVFEDFGFSSLYIAHPQSLVHLYEASRQPDSILSKTQCSLVVDCGFSFTHAVPVLHNFTLNHAIKRIDLGGKAFTNYLKELVSYRSINVMDETFLVDDAKEKLCFVSLDLLRDLRLARNGNTLIKSTYVLPDGVTHTKGYVKDPQAAKRFLSLSEKESVVVMDKVGERKKADMNKNEIDLTNERFLVPETLFQPADLGMNQAGLAECIVRAINSCHSYLQPVLYQSIILTGGSTLFPQLKERLEGELRPLVPDHFDVKITTQEDPILGVWRGGSLLASSPDFESMCVTKAEYEELGSARCRRRFFH", "values": [
      {"measurement": "binding", "result": "binds"}
    ]}
  ]
}
